These results are taken from patent US11866437B1, “1,2-dioxo-2,3-dihydro-1H-pyrrolo[2,3-c]quinoline-7-carboxylic acid compounds as CK2 inhibitors” (KING FAISAL UNIVERSITY, priority 2023, dated 2024).

Holding throughout (type): cell-based
One test concerns HCT116 (colon). As to the kind of experiment: In vitro cytotoxic activity MTT assay, HCT116. As to conditions: Homo sapiens, HCT-116; HCT116 cells, exposed for 96 hours; read-out: IC50, 50% inhibition of cell proliferation, HCT116 (colon). As to the method: (§1) Compounds 1-16 were screened for their in vitro cytotoxic activity utilizing a 3-(4,5-dimethyl-thiazol-2-yl)-2,5-diphenyltetrazolium bromide (MTT) assay against selected cancer human cell lines consisting of PC3 (prostate), HCT116 (colon), A375 (melanoma), H1299 (lung), MIAPaCa-2 (pancreas), HL60 (leukemia), MCF7 (breast), MDA-MB-231 (breast) (T. Mosmann, J. Immunol. Meth., 1983, 65, 55-63). The cells were cultured at 37° C. in RMPI1640 medium supplemented with 10% fetal bovine serum, 50 IU/mL penicillin, and 50 μg/mL streptomycin in a 5% CO2 incubator. All cells were sub-cultured 3 times/week by trypsinisation. Viable cells were seeded and allowed to adhere for 12 h before a test drug was added in 96-well plates at an initial density of 1.0×10^5 cells/mL. Tumour cell lines were separately exposed to various concentrations of the tested compounds followed by incubation at a temperature of 37° C. during 96 h inside a medium of fresh RMPI 1640. Cells were subsequently incubated at 37° C. using MTT at 0.5 mg/mL during 4 h. After removal of supernatant, formazan crystals were dissolved in isopropanol and the optical density was measured at 570 nm. CX-4945 was used as a positive control.
In general terms: Tetrazolium dyes change colour on reduction, which living cells bring about.

The next test has as its system A375 (melanoma). Briefly: In vitro cytotoxic activity MTT assay, A375. As to conditions: Homo sapiens, A-375; A375 cells, exposed for 96 hours; read-out: IC50, 50% inhibition of cell proliferation, A375 (melanoma). As to the method: as §1
For another test, the system named is MCF7 (breast). Briefly: In vitro cytotoxic activity MTT assay, MCF7. As to conditions: Homo sapiens; MCF7 cells, exposed for 96 hours; read-out: IC50, 50% inhibition of cell proliferation, MCF7 (breast). As for the experimental part: as §1
For another test, the system named is MIAPaCa-2 (pancreas). As to the kind of experiment: In vitro cytotoxic activity MTT assay, MIAPaCa-2. As to conditions: Homo sapiens, MIA PaCa-2; MIAPaCa-2 cells, exposed for 96 hours; read-out: IC50, 50% inhibition of cell proliferation, MIAPaCa-2 (pancreas). As to the method: as §1
The next test concerns H1299 (lung). As to the kind of experiment: In vitro cytotoxic activity MTT assay, H1299. The following applies: Homo sapiens, NCI-H1299; H1299 cells, exposed for 96 hours; read-out: IC50, 50% inhibition of cell proliferation, H1299 (lung). As to the method: as §1
The test system of another test is PC3 (prostate). As to the kind of experiment: In vitro cytotoxic activity MTT assay, PC3. As to conditions: Homo sapiens, PC-3; PC3 cells, exposed for 96 hours; read-out: IC50, 50% inhibition of cell proliferation, PC3 (prostate). As for the experimental part:
as §1

For another test, the system named is MDA-MB-231 (breast). Briefly: In vitro cytotoxic activity MTT assay, MDA-MB-231. The following applies: Homo sapiens; MDA-MB-231 cells, exposed for 96 hours; read-out: IC50, 50% inhibition of cell proliferation, MDA-MB-231 (breast). As to the method:
as §1

A further test has as its system HL60 (leukemia). As to the kind of experiment: In vitro cytotoxic activity MTT assay, HL60. As to conditions: Homo sapiens, HL-60; HL60 cells, exposed for 96 hours; read-out: IC50, 50% inhibition of cell proliferation, HL60 (leukemia). As for the experimental part:
as §1

As for `O=C(O)c1ccc2c(c1)nc(Nc1cccc(Cl)c1)c1ccncc12` [CX-4945, reference compound], the IC50 in the test on HCT116 (colon) is 2300 nM; in the test with A375 (melanoma), 4100 nM; with MCF7 (breast), 9100 nM; with MIAPaCa-2 (pancreas) it was 1000 nM; in the test with H1299 (lung), 2300 nM; in the test with PC3 (prostate), 2000 nM. The values for the IC50 in the test with MDA-MB-231 (breast) and with HL60 (leukemia) were 6200 nM and 3700 nM, respectively.
